Source: patent publication US9861706B2 (priority 2011, dated 2018)
Values joined by “and” are separate entries in the source; they are usually repeats but may differ in a detail not shown here. Equal entries are not always repeated.

Assay: general procedure: Fmoc solid-phase peptide synthesis; TentaGel S Ram resin (1 g; 0.25 mmol/g)
Conditions: analytical HPLC and MS

For “H-HGEGTFTSDLSKQLE-C(Biotin-Mal)-EAVRLFIEWLKN-8Ado-8Ado-YGWLDF-NH2”, the “final HPLC purity” value (purification step, run 1) was 91% pure, the “final HPLC purity” value (purification step, run 2) was 73% pure and 62% pure and the “final HPLC purity” value (purification step, run 3) was 90% pure. For the same substance, the “final HPLC purity” value (whole synthesis, run 1) was 68% pure and the “final HPLC purity” value (whole synthesis, run 2) was 74% pure.
In the case of “[Cys16(Biotin-Mal),Leu14]Exendin-4(1-28)-8Ado-8Ado-[Leu4]Gastrin6”, the “final HPLC purity” value (conjugation step) is reported as 84% pure.
For “[Glu9,Leu14,Phe25,Tyr13]Exendin-4(1-27)-QQ-[Leu4]Gastrin6”, the “final HPLC purity” value (whole synthesis) was 78% pure.
In the case of “[Leu14,Lys25(Hexadecanoyl-isoGlu)]Exendin-4(1-28)-8Ado-8Ado-[Leu4]Gastrin6”, the “final HPLC purity” value (whole synthesis) is reported as 81% pure.
